Data published in the supplement of paper PMC12873370.
Where “and” joins values, the source holds several entries; their conditions need not be identical. Equal values may be shown once. Some of the results follow. Most values come without repeats; read them as rough.

Experiments:
[1] = tested on: MEPP (mouse ovarian epithelium Trp53/Pten KO); assay: cell viability relative to untreated (fraction); higher = less growth inhibition; details: 5 µM; 3 days
[2] = tested on: PREPP (mouse prostate epithelium Trp53/Pten KO); assay: as above; details: 5 µM; 3 days

| Compound | cell viability [1] | cell viability [2] |
| --- | --- | --- |
| C[C@H](NC(=O)CCc1nc2ccccc2c(=O)[nH]1)c1ccccc1 | 0.915 | 0.973 |
| CC(C)N(C[C@H]1O[C@@H](n2cnc3c(N)ncnc32)[C@H](O)[C@@H]1O)[C@H]1C[C@@H](CCc2nc3cc(C(C)(C)C)ccc3[nH]2)C1 | 0.809 | 0.877 |
| O=C(O)C(Cc1c[nH]c2ccccc12)N1C(=O)c2ccccc2C1=O (centres undefined) | 1.07 | 0.972 |
| Nc1ccc(S(=O)(=O)NCCc2ccccc2)cc1 | 0.936 | 0.982 |
| C/C(=N\NC(=O)c1cccc(S(=O)(=O)N2CCOCC2)c1)c1cc(Cl)ccc1O | 0.55 | 0.739 |
| CCN(CC)C(=O)/C(C#N)=C/c1cc(O)c(O)c([N+](=O)[O-])c1 | 0.978 | 1.03 |
| CN1CCN(c2nc(C3=C(c4c[nH]c5ccccc45)C(=O)NC3=O)c3ccccc3n2)CC1 | 0.963 | 0.686 |
| N=C(N)NC(=N)NCCc1ccccc1 | 0.911 | 0.987 |
| Nc1nc(Nc2ccc(S(N)(=O)=O)cc2)nn1C(=O)c1c(F)cccc1F | 0.749 | 0.7 |
| CCN(CCCOc1ccc2c(Nc3cc(CC(=O)Nc4cccc(F)c4)[nH]n3)ncnc2c1)CCOP(=O)(O)O | 0.966 and 0.815 | 0.859 and 0.771 |
| Cc1cc(Nc2nc(N[C@@H](C)c3ncc(F)cn3)ncc2Cl)[nH]n1 | 0.748 | 0.712 |
| C#CCC(CCCCCC)C(=O)O (centres undefined) | 0.96 | 0.982 |
| Nc1ncn([C@@H]2O[C@H](CO)[C@@H](O)[C@H]2O)c(=O)n1 | 0.829 | 0.898 |
| Nc1nccc2c1ncn2C1C=C(CO)C(O)C1O (centres undefined) | 0.583 | 0.967 |
| CN1CCCN(C(=O)c2cccc(-c3ccc(/C=C4/C(=O)Nc5ccc(Cl)cc54)o3)c2)CC1 | 0.685 | 0.755 |
| CC[C@H](C)n1cc(C)c2c(C(=O)NCc3c(C)cc(C)[nH]c3=O)cc(-c3ccc(N4CCNCC4)nc3)cc21 | 0.895 | 0.79 |

| Compound | cell viability [1] | cell viability [2] |
| --- | --- | --- |
| CN(C)C(=N)NC(=N)N | 0.991 | 0.971 |
| c1nc2c(NC3CCCCC3)nc(Nc3ccc(N4CCOCC4)cc3)nc2[nH]1 | 0.428 | 0.605 |
| CCOC(=O)c1ccc(NC(=O)O[C@H]2[C@H](OC(=O)Nc3ccc4c(c3)OCO4)[C@@H](OC(=O)Nc3ccc4c(c3)OCO4)[C@@H](OC)O[C@@H]2CO)cc1 | 0.897 | 0.936 |
| O=C(O)CCCc1ccccc1 | 0.829 | 0.76 |
| CCS(=O)(=O)Nc1ccc2c(c1)/C(=C(/Nc1ccc(CN3CCCCC3)cc1)c1ccccc1)C(=O)N2 | 0.382 | 0.587 |
| O=C(c1ccc(C(=O)N2CCC(N3CCCC3)CC2)c(Nc2ccccc2)c1)N1CCC(N2CCCC2)CC1 | 0.992 | 0.876 |
| COc1cc2c(cc1-c1c(C)noc1C)ncc1[nH]c(=O)n([C@H](C)c3ccccn3)c12 | 0.859 | 0.54 |
| CC(C)(C)OC(=O)Nc1ccc(-c2cc(C(=O)NCCCCCCC(=O)NO)no2)cc1 | 0.432 | 0.667 |
| N#C/C(=C\c1ccc(O)c(O)c1)C(=O)NCc1ccccc1 | 0.865 | 0.828 |
| O=C(O)C1(C(=O)O)CCC1.[NH2-].[NH2-].[Pt+2] | 1.1 | 0.893 |
| O=C(c1cncc(Br)c1)N1CCC(N2CCCC2)CC1 | 1.02 | 0.946 |
| CN1CCC(CNc2ccc3ncc(-c4cccc(OC(F)(F)F)c4)n3n2)CC1 | 0.649 | 0.623 |
| N#Cc1c(-c2ccccc2)cc(-c2cc(Br)ccc2O)[nH]c1=O | 0.771 | 1.15 |
| CCCc1cc(C)[nH]c(=O)c1CNC(=O)c1cc(-c2ccnc(N3CCN(C)CC3)c2)cc2c1cnn2C(C)C | 0.902 | 0.806 |
| CCn1c(-c2nonc2N)nc2c(C#CC(C)(C)O)ncc(OC[C@H]3CCCNC3)c21 | 0.646 | 0.762 |
| CC(C)N(CCCNC(=O)Nc1ccc(C(C)(C)C)cc1)C[C@H]1O[C@@H](n2cc(Br)c3c(N)ncnc32)[C@H](O)[C@@H]1O | 0.806 | 1.06 |

Shown as labelled records: two of the compounds above.
N=C(N)NC(=N)NCCc1ccccc1
  cell viability [1]: 0.911; cell viability [2]: 0.987
Nc1nc(Nc2ccc(S(N)(=O)=O)cc2)nn1C(=O)c1c(F)cccc1F
  cell viability [1]: 0.749; cell viability [2]: 0.7
